No constants are given. Whether binding was seen depends on the method and setting. In cells and extracts the contact can be indirect. These calls come from enrichment with a bait or labelling near it, and not all partners need be listed.

Chains of the proteins cited; added tags and fusions are not shown. Residues count along the entry.
UniProt P47871, residues 26-477: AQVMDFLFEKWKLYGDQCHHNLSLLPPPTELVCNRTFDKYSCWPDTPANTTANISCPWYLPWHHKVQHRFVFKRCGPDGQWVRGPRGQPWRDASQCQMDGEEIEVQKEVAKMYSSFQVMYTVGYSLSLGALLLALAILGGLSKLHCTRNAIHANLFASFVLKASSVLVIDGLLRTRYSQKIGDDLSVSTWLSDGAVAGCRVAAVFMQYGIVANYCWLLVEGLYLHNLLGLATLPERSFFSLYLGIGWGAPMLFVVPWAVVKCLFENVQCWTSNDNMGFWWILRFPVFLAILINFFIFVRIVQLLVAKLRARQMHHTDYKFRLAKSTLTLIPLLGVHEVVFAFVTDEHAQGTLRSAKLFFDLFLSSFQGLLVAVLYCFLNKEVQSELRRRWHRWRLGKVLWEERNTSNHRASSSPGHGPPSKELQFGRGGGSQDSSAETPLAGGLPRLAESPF
UniProt Q3HR13: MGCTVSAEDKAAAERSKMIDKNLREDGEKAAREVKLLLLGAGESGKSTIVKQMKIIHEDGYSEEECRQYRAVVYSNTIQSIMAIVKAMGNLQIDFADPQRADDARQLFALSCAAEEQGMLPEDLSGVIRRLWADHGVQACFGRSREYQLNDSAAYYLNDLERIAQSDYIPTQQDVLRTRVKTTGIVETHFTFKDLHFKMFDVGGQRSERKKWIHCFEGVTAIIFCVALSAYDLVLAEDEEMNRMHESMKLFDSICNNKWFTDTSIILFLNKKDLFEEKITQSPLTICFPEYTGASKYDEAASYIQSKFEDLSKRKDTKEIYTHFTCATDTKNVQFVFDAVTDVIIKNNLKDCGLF
UniProt A0A8C2LCH3: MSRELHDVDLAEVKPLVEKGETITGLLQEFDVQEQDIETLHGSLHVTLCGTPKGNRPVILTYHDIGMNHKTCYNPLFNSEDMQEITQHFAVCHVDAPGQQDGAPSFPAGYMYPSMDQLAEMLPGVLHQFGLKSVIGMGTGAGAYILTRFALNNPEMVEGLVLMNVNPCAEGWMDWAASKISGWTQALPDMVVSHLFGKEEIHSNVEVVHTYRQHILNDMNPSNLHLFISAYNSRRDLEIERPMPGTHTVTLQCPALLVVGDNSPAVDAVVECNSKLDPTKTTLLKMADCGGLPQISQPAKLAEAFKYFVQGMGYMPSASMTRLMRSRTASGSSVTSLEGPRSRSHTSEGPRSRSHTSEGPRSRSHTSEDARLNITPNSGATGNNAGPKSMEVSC
UniProt A0A3L7H5N7: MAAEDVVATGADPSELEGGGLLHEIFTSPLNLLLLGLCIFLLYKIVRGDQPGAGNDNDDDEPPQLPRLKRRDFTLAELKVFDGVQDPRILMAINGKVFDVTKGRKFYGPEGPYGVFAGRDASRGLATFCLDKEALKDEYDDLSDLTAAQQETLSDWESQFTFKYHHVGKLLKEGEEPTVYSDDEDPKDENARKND
UniProt A0A061IL97: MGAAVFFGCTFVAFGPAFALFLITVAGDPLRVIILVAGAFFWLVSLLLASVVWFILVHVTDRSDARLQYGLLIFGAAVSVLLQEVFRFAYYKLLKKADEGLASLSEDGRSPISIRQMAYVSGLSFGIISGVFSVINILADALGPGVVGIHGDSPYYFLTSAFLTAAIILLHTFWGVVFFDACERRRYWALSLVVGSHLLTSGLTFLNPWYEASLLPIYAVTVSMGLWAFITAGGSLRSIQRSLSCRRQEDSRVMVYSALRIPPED
UniProt P49020, residues 16-196: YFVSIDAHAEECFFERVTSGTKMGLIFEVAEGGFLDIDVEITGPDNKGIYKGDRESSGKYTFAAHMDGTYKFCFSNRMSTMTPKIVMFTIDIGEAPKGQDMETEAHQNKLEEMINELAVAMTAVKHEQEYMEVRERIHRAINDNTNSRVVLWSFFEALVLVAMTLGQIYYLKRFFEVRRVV
UniProt P35950, residues 22-862: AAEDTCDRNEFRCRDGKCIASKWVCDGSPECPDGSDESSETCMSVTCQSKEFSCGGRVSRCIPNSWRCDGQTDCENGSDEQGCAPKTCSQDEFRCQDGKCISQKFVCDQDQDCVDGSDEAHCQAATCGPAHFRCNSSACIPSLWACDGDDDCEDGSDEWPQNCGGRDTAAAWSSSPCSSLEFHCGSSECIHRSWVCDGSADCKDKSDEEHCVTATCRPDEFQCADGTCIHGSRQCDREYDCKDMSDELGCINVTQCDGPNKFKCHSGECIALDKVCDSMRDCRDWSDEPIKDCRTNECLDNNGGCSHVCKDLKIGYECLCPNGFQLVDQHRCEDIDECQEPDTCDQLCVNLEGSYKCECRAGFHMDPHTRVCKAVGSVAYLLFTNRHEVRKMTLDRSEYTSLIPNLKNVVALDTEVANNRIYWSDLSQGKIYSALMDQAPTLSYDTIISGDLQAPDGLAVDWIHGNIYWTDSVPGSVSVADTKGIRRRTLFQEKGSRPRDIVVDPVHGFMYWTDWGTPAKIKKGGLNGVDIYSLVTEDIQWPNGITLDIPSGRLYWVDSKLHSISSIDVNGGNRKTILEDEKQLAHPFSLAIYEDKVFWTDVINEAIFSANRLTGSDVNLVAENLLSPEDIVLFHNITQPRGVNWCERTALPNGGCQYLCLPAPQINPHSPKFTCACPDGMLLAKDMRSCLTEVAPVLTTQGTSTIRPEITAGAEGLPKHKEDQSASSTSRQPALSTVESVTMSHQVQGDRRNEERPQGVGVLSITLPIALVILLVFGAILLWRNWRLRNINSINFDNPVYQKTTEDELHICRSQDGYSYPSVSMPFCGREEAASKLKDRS
UniProt A0A8C2MRH7: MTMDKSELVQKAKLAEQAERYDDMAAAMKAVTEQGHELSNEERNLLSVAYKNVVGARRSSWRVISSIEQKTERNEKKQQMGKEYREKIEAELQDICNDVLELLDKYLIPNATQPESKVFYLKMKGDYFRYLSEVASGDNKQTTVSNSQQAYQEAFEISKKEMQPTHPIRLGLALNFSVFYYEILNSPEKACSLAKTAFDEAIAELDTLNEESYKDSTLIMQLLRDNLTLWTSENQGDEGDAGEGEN
UniProt A0A3L7HJ29: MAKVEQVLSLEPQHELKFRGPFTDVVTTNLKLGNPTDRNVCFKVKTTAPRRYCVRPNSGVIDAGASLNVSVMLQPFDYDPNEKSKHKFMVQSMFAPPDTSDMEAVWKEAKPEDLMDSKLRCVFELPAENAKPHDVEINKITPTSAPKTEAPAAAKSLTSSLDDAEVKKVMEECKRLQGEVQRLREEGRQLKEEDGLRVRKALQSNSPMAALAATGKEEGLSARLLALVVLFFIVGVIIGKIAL
UniProt G3HC29: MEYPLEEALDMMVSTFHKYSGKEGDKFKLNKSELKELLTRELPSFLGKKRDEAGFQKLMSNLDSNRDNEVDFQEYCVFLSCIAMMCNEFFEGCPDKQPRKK
UniProt A0A8C2M508: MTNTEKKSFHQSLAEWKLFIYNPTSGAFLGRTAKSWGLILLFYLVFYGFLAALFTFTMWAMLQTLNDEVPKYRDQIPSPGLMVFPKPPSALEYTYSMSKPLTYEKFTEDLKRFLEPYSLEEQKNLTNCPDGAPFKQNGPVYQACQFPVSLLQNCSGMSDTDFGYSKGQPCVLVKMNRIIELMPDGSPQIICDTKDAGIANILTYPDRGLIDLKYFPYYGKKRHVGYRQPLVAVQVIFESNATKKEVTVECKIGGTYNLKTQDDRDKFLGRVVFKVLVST
UniProt A0A8C2ME99: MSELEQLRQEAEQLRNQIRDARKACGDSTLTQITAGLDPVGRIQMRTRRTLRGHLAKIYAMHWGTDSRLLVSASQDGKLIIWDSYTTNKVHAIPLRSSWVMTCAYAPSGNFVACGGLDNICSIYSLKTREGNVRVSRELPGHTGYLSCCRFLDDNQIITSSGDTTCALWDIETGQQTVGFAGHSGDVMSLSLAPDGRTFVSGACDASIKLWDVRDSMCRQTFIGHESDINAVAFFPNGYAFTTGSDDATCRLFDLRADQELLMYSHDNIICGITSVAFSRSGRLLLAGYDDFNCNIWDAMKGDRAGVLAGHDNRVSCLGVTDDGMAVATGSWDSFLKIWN
UniProt Q07891: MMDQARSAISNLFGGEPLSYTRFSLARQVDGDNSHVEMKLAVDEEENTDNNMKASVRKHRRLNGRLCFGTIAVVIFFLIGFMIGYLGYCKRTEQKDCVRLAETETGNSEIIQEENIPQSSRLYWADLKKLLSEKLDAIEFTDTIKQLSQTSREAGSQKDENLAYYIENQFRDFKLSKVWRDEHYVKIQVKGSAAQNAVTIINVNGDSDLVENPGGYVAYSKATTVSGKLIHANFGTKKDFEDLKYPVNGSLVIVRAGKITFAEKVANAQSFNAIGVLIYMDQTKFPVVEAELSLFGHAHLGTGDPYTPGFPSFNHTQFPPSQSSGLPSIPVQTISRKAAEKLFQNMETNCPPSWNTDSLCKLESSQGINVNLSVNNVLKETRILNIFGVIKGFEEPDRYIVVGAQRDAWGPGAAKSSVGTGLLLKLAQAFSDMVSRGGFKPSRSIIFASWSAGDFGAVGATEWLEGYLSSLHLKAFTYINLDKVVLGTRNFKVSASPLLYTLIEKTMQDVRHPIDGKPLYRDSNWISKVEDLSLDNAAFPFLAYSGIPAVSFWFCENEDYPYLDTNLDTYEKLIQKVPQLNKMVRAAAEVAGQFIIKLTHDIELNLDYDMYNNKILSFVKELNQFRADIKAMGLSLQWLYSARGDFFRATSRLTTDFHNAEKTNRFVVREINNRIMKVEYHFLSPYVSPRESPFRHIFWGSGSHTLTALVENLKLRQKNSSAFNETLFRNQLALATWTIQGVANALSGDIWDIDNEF
UniProt A0A8C2LKN4: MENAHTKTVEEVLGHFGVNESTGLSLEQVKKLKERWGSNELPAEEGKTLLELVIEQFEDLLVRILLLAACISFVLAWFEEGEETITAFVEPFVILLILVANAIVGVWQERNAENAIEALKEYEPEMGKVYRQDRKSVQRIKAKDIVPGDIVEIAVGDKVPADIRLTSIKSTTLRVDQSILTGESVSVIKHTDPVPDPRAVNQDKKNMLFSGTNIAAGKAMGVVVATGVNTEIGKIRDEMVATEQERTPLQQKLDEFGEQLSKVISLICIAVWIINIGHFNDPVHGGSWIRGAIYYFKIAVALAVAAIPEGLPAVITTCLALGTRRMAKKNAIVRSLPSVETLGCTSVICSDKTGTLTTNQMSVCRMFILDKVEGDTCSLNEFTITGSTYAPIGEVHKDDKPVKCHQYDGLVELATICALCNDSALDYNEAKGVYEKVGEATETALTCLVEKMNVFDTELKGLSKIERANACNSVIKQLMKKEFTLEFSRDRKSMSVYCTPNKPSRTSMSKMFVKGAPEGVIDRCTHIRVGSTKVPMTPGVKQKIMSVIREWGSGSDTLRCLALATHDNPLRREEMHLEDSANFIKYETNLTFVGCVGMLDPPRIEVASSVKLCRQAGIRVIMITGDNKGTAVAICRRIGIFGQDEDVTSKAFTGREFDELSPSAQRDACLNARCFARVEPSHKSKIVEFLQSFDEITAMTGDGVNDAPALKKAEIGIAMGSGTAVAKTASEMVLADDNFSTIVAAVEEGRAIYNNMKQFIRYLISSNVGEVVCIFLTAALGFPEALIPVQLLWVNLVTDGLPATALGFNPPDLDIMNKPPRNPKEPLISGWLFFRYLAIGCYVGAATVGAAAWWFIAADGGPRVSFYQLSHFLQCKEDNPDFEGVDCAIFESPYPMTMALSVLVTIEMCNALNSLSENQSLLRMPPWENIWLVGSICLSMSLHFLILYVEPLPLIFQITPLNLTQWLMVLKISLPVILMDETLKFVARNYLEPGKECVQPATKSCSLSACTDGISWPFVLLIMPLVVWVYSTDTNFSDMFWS
UniProt A0A8C2M4T3: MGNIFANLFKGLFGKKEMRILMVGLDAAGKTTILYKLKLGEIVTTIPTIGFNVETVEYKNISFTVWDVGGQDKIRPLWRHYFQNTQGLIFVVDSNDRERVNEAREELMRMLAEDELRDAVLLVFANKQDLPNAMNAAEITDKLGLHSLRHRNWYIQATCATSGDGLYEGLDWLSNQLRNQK
UniProt G3H3P1: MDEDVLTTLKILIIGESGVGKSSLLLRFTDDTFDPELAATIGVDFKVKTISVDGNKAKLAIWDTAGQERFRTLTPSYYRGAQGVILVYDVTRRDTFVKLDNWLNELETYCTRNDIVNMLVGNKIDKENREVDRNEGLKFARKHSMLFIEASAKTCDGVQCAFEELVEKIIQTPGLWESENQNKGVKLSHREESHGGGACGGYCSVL
UniProt A0A3L7HBS5: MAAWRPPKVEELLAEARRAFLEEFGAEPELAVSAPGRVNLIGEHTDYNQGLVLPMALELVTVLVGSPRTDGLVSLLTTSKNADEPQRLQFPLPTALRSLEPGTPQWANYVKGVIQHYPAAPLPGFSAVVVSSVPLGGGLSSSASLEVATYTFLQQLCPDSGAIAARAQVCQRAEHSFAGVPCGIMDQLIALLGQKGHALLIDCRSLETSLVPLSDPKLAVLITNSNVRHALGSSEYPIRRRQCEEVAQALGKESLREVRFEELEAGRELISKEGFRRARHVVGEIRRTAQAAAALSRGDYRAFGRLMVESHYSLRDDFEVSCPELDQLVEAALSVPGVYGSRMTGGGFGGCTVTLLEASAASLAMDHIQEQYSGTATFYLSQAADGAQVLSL

The target of this experiment is human glucagon receptor (GCGR), C-terminal Flag-tagged (human) (UniProt P47871). The experiment in a line: affinity purification with mass spectrometry; anti-Flag M2 affinity gel on lysates of CHO cells transfected with GCGR-Flag, with or without glucagon (10 nM, 5 minutes); lysis buffer 10% glycerol, 50 mM HEPES pH 7.4, 150 mM NaCl, 2 mM EDTA, 0.25% DDM; elution with ammonium hydroxide pH 11.0, trypsin, LC-MS/MS; three repeats; control cells without GCGR-Flag.
Turning to GNAi2 (from UniProt Q3HR13 1-355), the binding result was “binds”.
Regarding NDRG1 (from UniProt A0A8C2LCH3 1-394), the binding result is “binds”.
Turning to PGRMC1 (from UniProt A0A3L7H5N7 1-195), the binding result is reported as “binds”.
As for APH1A (from UniProt A0A061IL97 1-265), the binding result is on record as “binds”.
Turning to TMED2 (from UniProt P49020 16-196), the binding entry is on record as “binds”.
As for “LDLR (from UniProt P35950 22-862) (receptor)”, the binding entry is on record as “binds”.
Consider “14-3-3 protein beta, also known as tyrosine 3-monooxygenase/tryptophan 5-monooxygenase activation protein, beta (YWHAB) (from UniProt A0A8C2MRH7 1-246)”, for which the binding result is reported as “binds”.
Regarding VAPB (from UniProt A0A3L7HJ29 1-243), the binding result is recorded as “binds”.
With S100A4 (from UniProt G3HC29 1-101) the entry was “binds”; with ATP1B3 (from UniProt A0A8C2M508 1-279), “binds”.
For the substance GNB2 (from UniProt A0A8C2ME99 1-340), the binding result was “binds”.
With “TFR1 (from UniProt Q07891 1-757) (receptor)”, the binding entry is listed as “binds”.
The same measure for ATP2A2 (from UniProt A0A8C2LKN4 1-1042): “binds”; for “ADP-ribosylation factor 1 (ARF1) (from UniProt A0A8C2M4T3 1-181)”: “binds”.
Consider RAB18 (from UniProt G3H3P1 1-206), for which the binding result is on record as “binds”.
As to GALK1 (from UniProt A0A3L7HBS5 1-392), the binding result is “binds”.

Source of the values: publication PMC4468146.
